In all, about 390,000 compounds went through this assay and about 910 (0.23%) were called active. This list was built around the results that the source calls inconclusive (neither active nor inactive); the mix of calls is not that of the screen. Calls come from the whole dose curve; as a rule, active = well fitted inhibition curve with a large enough effect; inconclusive = small, poorly fitted or top-dose-only effect; inactive = no such curve, though single readings can be large or run the other way. A potency beside an inconclusive call is a rough fit, not a confirmed value.
target: Ubiquitin carboxyl-terminal hydrolase 1 (Homo sapiens) (UniProt O94782); assay: Inhibitors of USP1/UAF1: Primary Screen; conditions: recombinant USP1/UAF1, Ub-Rhodamine cleavage fluorescence; activity change, negative = inhibition: at 57.1 µM (top of the series); note: nearly all actives have a fitted effect of over 60% in size
How it was run: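 USP1/UAF1 complex (1 nM) preincubated 15 min at room temperature with compound, then Ub-Rho substrate (150 nM final) added. Kinetic fluorescence at 480/540 nm over 6 reads at 60 s intervals; 50 mM HEPES pH 7.8, 0.5 mM EDTA, 0.1 mg/ml BSA, 1 mM TCEP, 0.01% Tween-20.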
% is set by controls: 0 for no effect and ±100 for the full control effect; potency is the fitted concentration of half-maximal effect.

The chains behind the UniProt entries cited, without tags or fusion partners. Where a name states a change or a piece, a line headed by the entry shows the natural chain unless it says otherwise.
UniProt O94782: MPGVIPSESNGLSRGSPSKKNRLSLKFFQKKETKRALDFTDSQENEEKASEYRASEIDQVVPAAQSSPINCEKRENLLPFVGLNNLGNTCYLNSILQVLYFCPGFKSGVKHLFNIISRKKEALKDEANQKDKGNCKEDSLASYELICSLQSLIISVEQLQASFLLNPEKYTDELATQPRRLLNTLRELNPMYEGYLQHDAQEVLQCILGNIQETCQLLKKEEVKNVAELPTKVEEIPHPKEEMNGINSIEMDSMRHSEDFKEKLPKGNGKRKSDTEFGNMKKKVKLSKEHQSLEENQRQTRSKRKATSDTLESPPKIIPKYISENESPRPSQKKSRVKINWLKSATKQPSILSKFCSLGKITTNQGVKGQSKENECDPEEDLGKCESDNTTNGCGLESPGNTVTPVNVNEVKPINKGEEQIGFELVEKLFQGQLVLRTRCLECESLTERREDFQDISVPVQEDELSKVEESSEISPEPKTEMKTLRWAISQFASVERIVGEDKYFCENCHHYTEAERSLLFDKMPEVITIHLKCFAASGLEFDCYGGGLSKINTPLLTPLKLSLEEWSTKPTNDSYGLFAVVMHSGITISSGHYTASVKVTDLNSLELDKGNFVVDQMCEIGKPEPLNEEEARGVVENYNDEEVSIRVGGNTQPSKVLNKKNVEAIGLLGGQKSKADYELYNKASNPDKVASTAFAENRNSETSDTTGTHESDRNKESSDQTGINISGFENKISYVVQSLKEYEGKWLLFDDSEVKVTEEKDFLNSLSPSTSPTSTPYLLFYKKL

Structure (SMILES)	Potency	activity change, negative = inhibition
CCOCCCNC(=O)c1[nH]c2cc(C)ccc2c1Sc1ccc(Cl)cc1	inconclusive: 0.282 µM [inhibitor, full curve, poor fit]	
Cc1ccc(S(=O)(=O)N2CCC(=O)N(C(COCc3ccc(Cl)cc3)Cc3ccccc3)CC2)cc1 (configuration not stated)		inconclusive: -27.9% [inhibitor]
CC1(C)CC[C@@]23CC[C@]4(C)[C@@](OC2=O)(C3C1)[C@H]1O[C@H]1C1[C@@]2(C)CC[C@H](O)C(C)(C)C2CC[C@]14C (some centres not stated)	inconclusive: 5.01 µM [inhibitor, partial curve]	
CCc1c(C)sc(NC(=O)c2cc(-c3cccc(Cl)c3)on2)c1C#N	inconclusive: 5.01 µM [inhibitor, full curve, poor fit]	
CCOc1ccc(N(CC(=O)NCc2ccco2)C(=O)CCC(=O)Nc2ccccn2)cc1	inconclusive: 31.6 µM [inhibitor, partial curve]	
Nc1cc(=O)nc(SCC(=O)N2CCN(c3ccccc3)CC2)n1-c1ccc(F)cc1	inactive	
Cc1nc(SCC(=O)N2CCc3ccccc3C2)c2c(C)c(C)sc2n1	inconclusive: 7.08 µM [inhibitor, full curve, poor fit]	
CN(Cc1cccnc1)C(=O)CNC(=O)COc1ccccc1	inconclusive: 7.08 µM [inhibitor, single point]	
Cc1c(C)n(C)c2ccc(C(=O)NCCCN3CCCCC3C)cc12 (configuration not stated)	inconclusive: 1.12 µM [inhibitor, full curve]	
C=CCNc1nnc(SC2CC(=O)N(c3ccc(OCCC)cc3)C2=O)s1 (configuration not stated)	inactive	
Oc1ccc(/C=N/Nc2ccc(C(F)(F)F)cn2)cc1	inactive	
Cc1ccc(S(=O)(=O)c2cc3cc(C(=O)O)ccc3oc2=O)cc1	inconclusive: 56.2 µM [inhibitor, partial curve]	
Cc1cc(/C=C2/NC(=O)NC2=O)c(C)n1C	inconclusive: 10 µM [inhibitor, partial curve, poor fit]	
COc1ccc(C)cc1NC(=O)c1c(C)oc2ncn(CC(C)C)c(=O)c12	inconclusive: 31.6 µM [inhibitor, partial curve]	
Cc1ccc(CN2C(=O)N/C(=C\c3cccn3-c3cccc(C(=O)O)c3)C2=O)cc1	inactive	
CCC(C)N1CC(=O)N2C(c3ccc(OC)cc3OC)c3[nH]c4ccccc4c3C[C@H]2C1=O (some centres not stated)	inactive	
COc1ccc(C)c2sc(N(Cc3cccnc3)C(=O)C3CCCCC3)nc12	inactive	
COc1ccccc1C1SCCN1S(=O)(=O)c1cccc(C(F)(F)F)c1 (configuration not stated)	inconclusive: 0.355 µM [inhibitor, full curve, poor fit]	
Cc1cc(C)c2nc(NNC(=O)c3cc(=O)c4ccccc4o3)sc2c1	active: 28.2 µM	
CN(C)c1cccc2c1c(NC(=O)c1ccc(Cl)cc1)nn2C	inconclusive: 44.7 µM [inhibitor, partial curve, poor fit]	
COc1ccc(-c2nc(CSc3nncn4c3cc3occc34)c(C)o2)cc1	inconclusive: 28.2 µM [inhibitor, single point]	

Structure (SMILES)	Potency	activity change, negative = inhibition
O=c1c2ccccc2c2ccccc2c(=O)n1-c1ccccc1	inconclusive: 35.5 µM [inhibitor, partial curve]	
COc1ccc(Cl)cc1-n1c(/C=C/c2cccc3ccccc23)nc2ccccc2c1=O	inconclusive: 7.08 µM [inhibitor, partial curve, poor fit]	
O=C(Nc1cccc(Cl)c1)c1cccc(Oc2ccc([N+](=O)[O-])cc2Cl)c1	inactive	
COc1ccc(/C=C2\C(=O)NC(=S)N2C(=O)c2ccc(F)cc2)cc1	inconclusive: 50.1 µM [inhibitor, single point]	
Cc1ccc(-c2nc(N/N=C/c3ccccc3[N+](=O)[O-])c3ccccc3n2)cc1	inconclusive: 39.8 µM [inhibitor, single point]	
CC(C)C[C@H](NC(=O)c1nc[nH]c1C(=O)N1CCc2ccccc2C1)C(=O)OC(C)(C)C	inconclusive: 44.7 µM [inhibitor, partial curve]	
Cc1nnc(NCc2ccc(Cl)cc2)c2c1nnn2Cc1ccc(F)cc1	inconclusive: 17.8 µM [inhibitor, partial curve, poor fit]	
O=C(CSc1nc2ccccc2[nH]1)NCC1CCCO1 (configuration not stated)	inconclusive: 5.62 µM [inhibitor, partial curve]	
CCOC(=O)N1CCN(C(=O)CSc2ccccc2)CC1	inactive	
O=C(O)c1cccc2c1-c1ccccc1/C2=N\Nc1ccccc1	inconclusive: 28.2 µM [inhibitor, partial curve]	
CCc1ccc(NC(=O)C[n+]2cc(-c3ccc(C)cc3)n3c2CCC3)cc1	inconclusive: 0.1 µM [inhibitor, full curve, poor fit]	
O=C(CCC1N=C2c3ccccc3N=C(SCc3ccccc3Cl)N2C1=O)NCCc1ccccc1 (configuration not stated)	inconclusive: 0.501 µM [inhibitor, full curve, poor fit]	
Cc1cc(C)cc(-n2c(=O)c3ccccc3n(CC(=O)NCC3CCCO3)c2=O)c1 (configuration not stated)	inactive	
CC(=O)COc1ccc2cc(-c3ccccc3)c(=O)oc2c1	inactive	
Cc1c(/C=N/O)c2ccccn2c1C=O	inactive	
O=C(NC(=S)Nc1ccccc1N1CCCC1)c1cccs1	inconclusive: 28.2 µM [inhibitor, partial curve]	
COc1ccc(N2CC(NC(=O)/C=C\c3ccc4c(c3)OCO4)CC2=O)cc1 (configuration not stated)	inconclusive: 0.631 µM [inhibitor, full curve, poor fit]	
Cc1cc(C)c(S(=O)(=O)c2ccccc2C)c(OCC(C)(C)C)n1	inconclusive: 31.6 µM [inhibitor, single point]	
Cc1cccc(NC(=O)CSc2nnc(-c3ccco3)c(-c3ccco3)n2)c1	inconclusive: 44.7 µM [inhibitor, single point]	
CCOC(=O)c1c(C)[nH]c(C(=O)N(C)Cc2cccc(OC)c2OC)c1C	inconclusive: 5.01 µM [inhibitor, partial curve]	
O=C(N[C@H]1C/C=C\C[C@H](CC(=O)N(CCO)Cc2ccccc2)C(=O)N[C@H](Cc2c[nH]c3ccccc23)COC1=O)OCC1c2ccccc2-c2ccccc21	inconclusive: 44.7 µM [inhibitor, partial curve, poor fit]	

Structure (SMILES)	Potency	activity change, negative = inhibition
O=C(COc1ccc2ccccc2c1)N1CCN(C(=O)c2ccc([N+](=O)[O-])cc2)CC1	inconclusive: 11.2 µM [inhibitor, single point]	
CCCCCCCCNc1ccccc1S(=O)(=O)NCc1ccccc1	inconclusive: 14.1 µM [inhibitor, partial curve]	
COc1cccc(/C=C2\C(=O)N(c3cccc(C)c3)C(=O)c3ccccc32)c1	inconclusive: 28.2 µM [inhibitor, partial curve]	
O=C(NCc1ccccc1Cl)C1CCN(S(=O)(=O)Cc2ccccc2)CC1	inconclusive: 12.6 µM [inhibitor, partial curve]	
CCOC(=O)c1ccc(NC(=O)c2cnn(-c3ccc(C)cc3C)c2C2CCN(C(=O)OC(C)(C)C)CC2)cc1	inconclusive: 1.78 µM [inhibitor, full curve, poor fit]	
COc1cc(NC(=O)c2ccco2)c(OC)cc1NC(=O)CSc1nnc(-c2cccs2)n1C	inconclusive: 31.6 µM [inhibitor, single point]	
O=C(Nc1ccc(F)c(Cl)c1)C1CCN(C(=O)c2ccc(F)cc2)CC1	inconclusive: 5.62 µM [inhibitor, partial curve, poor fit]	
O=c1c(O)c(-c2ccc(O)c(O)c2)oc2cc(O)ccc12	inactive	
Clc1ccc(Cn2nc(-c3ccccc3)nc2-c2ccccc2)cc1	inconclusive: 39.8 µM [inhibitor, partial curve, poor fit]	
Cc1c(C)c(C)c2[nH]c(-c3ccc4c(c3)OCO4)nc2c1C	inconclusive: 39.8 µM [inhibitor, partial curve]	
CC(C)C(c1nnnn1C(C)(C)C)N1CCC(Cc2ccccc2)CC1 (configuration not stated)	inconclusive: 50.1 µM [inhibitor, partial curve, poor fit]	
O=C(NC1CCN(Cc2ccccc2)CC1)c1ccccc1F	inconclusive: 25.1 µM [inhibitor, single point]	
Cc1ccc(S(=O)(=O)N(CC(=O)N=Nc2c(O)[nH]c3ccccc23)c2cccc(C)c2)cc1	inconclusive: 56.2 µM [inhibitor, partial curve, poor fit]	
CCOC(=O)c1c(NC(=O)CCCOc2ccc(Cl)cc2)sc2c1CCC2	inconclusive: 7.94 µM [inhibitor, partial curve, poor fit]	
CCOC(=O)c1ccc(Cl)c(NC(=O)c2ccc(-c3ccccc3)cc2)c1	inconclusive: 7.94 µM [inhibitor, partial curve, poor fit]	
O=C(C1CCCN(S(=O)(=O)c2cccc3nonc23)C1)N1CCN(c2ccccc2Cl)CC1 (configuration not stated)	inactive	
Nc1nonc1-c1nc2ccccc2n1Cc1c(Cl)cccc1Cl	inconclusive: 44.7 µM [inhibitor, partial curve, poor fit]	
COc1ccccc1N1CCN(C(=O)CCc2c[nH]c3ccccc23)CC1	inactive	
CCCCCCn1c(=O)n2n(c1=O)C[C@]1(OC(=O)NCC3CCCCC3)CN(S(=O)(=O)c3ccc(C)cc3)C[C@]1(O)C2	inconclusive: 79.4 µM [inhibitor, partial curve, poor fit]	
CN(Cc1ccccc1)C(=O)c1ccc(NC(=O)Cc2cccc([N+](=O)[O-])c2)cc1	inconclusive: 50.1 µM [inhibitor, partial curve, poor fit]	

As entered above.
In Potency, CN(C)c1cccc2c1c(NC(=O)c1ccc(Cl)cc1)nn2C is entered as inconclusive: 44.7 µM [inhibitor, partial curve, poor fit]
In Potency, O=C(N[C@H]1C/C=C\C[C@H](CC(=O)N(CCO)Cc2ccccc2)C(=O)N[C@H](Cc2c[nH]c3ccccc23)COC1=O)OCC1c2ccccc2-c2ccccc21 is entered as inconclusive: 44.7 µM [inhibitor, partial curve, poor fit]
In Potency, COc1ccc(-c2nc(CSc3nncn4c3cc3occc34)c(C)o2)cc1 is entered as inconclusive: 28.2 µM [inhibitor, single point]

From PubChem BioAssay AID743255 (National Center for Advancing Translational Sciences (NCATS), 2014)
